These are yes or no findings as the source states them, for the method shown. In cells and extracts the contact can be indirect. A yes stands for co-enrichment or nearness to the bait. Other partners may have been found. For some assays here: Sequences can lack the tags named with a protein.
T1: His6-tagged LapD protein (E. coli K-12) (UniProt P0ADW3)
T1 sequence: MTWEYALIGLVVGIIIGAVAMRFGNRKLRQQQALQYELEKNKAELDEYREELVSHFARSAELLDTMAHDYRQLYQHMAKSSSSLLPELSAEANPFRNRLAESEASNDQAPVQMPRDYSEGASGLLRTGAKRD

Amino acid sequences for entries named in this document (tags omitted).
UniProt P0AB58: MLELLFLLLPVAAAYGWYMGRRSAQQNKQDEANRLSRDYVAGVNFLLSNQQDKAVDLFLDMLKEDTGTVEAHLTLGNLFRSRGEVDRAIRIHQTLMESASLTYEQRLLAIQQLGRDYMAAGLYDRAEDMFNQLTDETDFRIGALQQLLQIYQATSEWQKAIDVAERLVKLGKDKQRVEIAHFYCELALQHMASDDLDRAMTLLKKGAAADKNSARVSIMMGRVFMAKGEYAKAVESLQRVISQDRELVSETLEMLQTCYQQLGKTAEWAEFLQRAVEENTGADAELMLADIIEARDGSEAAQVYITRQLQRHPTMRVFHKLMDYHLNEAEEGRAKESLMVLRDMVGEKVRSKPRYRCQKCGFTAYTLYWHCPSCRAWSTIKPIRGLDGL

B1: ZapD (protein, UniProt P36680 1-247)
chain: MQTQVLFEHPLNEKMRTWLRIEFLIQQLTVNLPIVDHAGALHFFRNVSELLDVFERGEVRTELLKELDRQQRKLQTWIGVPGVDQSRIEALIQQLKAAGSVLISAPRIGQFLREDRLIALVRQRLSIPGGCCSFDLPTLHIWLHLPQAQRDSQVETWIASLNPLTQALTMVLDLIRQSAPFRKQTSLNGFYQDNGGDADLLRLNLSLDSQLYPQISGHKSRFAIRFMPLDTENGQVPERLDFELACC
B2: HldE (enzyme, UniProt P76658 1-477)
chain: MKVTLPEFERAGVMVVGDVMLDRYWYGPTSRISPEAPVPVVKVNTIEERPGGAANVAMNIASLGANARLVGLTGIDDAARALSKSLADVNVKCDFVSVPTHPTITKLRVLSRNQQLIRLDFEEGFEGVDPQPLHERINQALSSIGALVLSDYAKGALASVQQMIQLARKAGVPVLIDPKGTDFERYRGATLLTPNLSEFEAVVGKCKTEEEIVERGMKLIADYELSALLVTRSEQGMSLLQPGKAPLHMPTQAQEVYDVTGAGDTVIGVLAATLAAGNSLEEACFFANAAAGVVVGKLGTSTVSPIELENAVRGRADTGFGVMTEEELKLAVAAARKRGEKVVMTNGVFDILHAGHVSYLANARKLGDRLIVAVNSDASTKRLKGDSRPVNPLEQRMIVLGALEAVDWVVSFEEDTPQRLIAGILPDLLVKGGDYKPEEIAGSKEVWANGGEVLVLNFEDGCSTTNIIKKIQQDKKG
B3: MukE (protein, UniProt P22524 1-234)
chain: MSSTNIEQVMPVKLAQALANPLFPALDSALRSGRHIGLDELDNHAFLMDFQEYLEEFYARYNVELIRAPEGFFYLRPRSTTLIPRSVLSELDMMVGKILCYLYLSPERLANEGIFTQQELYDELLTLADEAKLLKLVNNRSTGSDVDRQKLQEKVRSSLNRLRRLGMVWFMGHDSSKFRITESVFRFGADVRAGDDPREAQRRLIRDGEAMPIENHLQLNDETEENQPDSGEEE
B4: MukF (protein, UniProt P60293 1-440)
chain: MSEFSQTVPELVAWARKNDFSISLPVDRLSFLLAVATLNGERLDGEMSEGELVDAFRHVSDAFEQTSETIGVRANNAINDMVRQRLLNRFTSEQAEGNAIYRLTPLGIGITDYYIRQREFSTLRLSMQLSIVAGELKRAADAAEEGGDEFHWHRNVYAPLKYSVAEIFDSIDLTQRLMDEQQQQVKDDIAQLLNKDWRAAISSCELLLSETSGTLRELQDTLEAAGDKLQANLLRIQDATMTHDDLHFVDRLVFDLQSKLDRIISWGQQSIDLWIGYDRHVHKFIRTAIDMDKNRVFAQRLRQSVQTYFDEPWALTYANADRLLDMRDEEMALRDEEVTGELPEDLEYEEFNEIREQLAAIIEEQLAVYKTRQVPLDLGLVVREYLSQYPRARHFDVARIVIDQAVRLGVAQADFTGLPAKWQPINDYGAKVQAHVIDKY
B5: MreC (protein, UniProt P16926 1-367)
chain: MKPIFSRGPSLQIRLILAVLVALGIIIADSRLGTFSQIRTYMDTAVSPFYFVSNAPRELLDGVSQTLASRDQLELENRALRQELLLKNSELLMLGQYKQENARLRELLGSPLRQDEQKMVTQVISTVNDPYSDQVVIDKGSVNGVYEGQPVISDKGVVGQVVAVAKLTSRVLLICDATHALPIQVLRNDIRVIAAGNGCTDDLQLEHLPANTDIRVGDVLVTSGLGGRFPEGYPVAVVSSVKLDTQRAYTVIQARPTAGLQRLRYLLLLWGADRNGANPMTPEEVHRVANERLMQMMPQVLPSPDAMGPKLPEPATGIAQPTPQQPATGNAATAPAAPTQPAANRSPQRATPPQSGAQPPARAPGGQ
B6: FklB (enzyme, UniProt P0A9L3 1-206)
chain: MTTPTFDTIEAQASYGIGLQVGQQLSESGLEGLLPEALVAGIADALEGKHPAVPVDVVHRALREIHERADAVRRQRFQAMAAEGVKYLEENAKKEGVNSTESGLQFRVINQGEGAIPARTDRVRVHYTGKLIDGTVFDSSVARGEPAEFPVNGVIPGWIEALTLMPVGSKWELTIPQELAYGERGAGASIPPFSTLVFEVELLEIL
B7: LapA (protein, UniProt P0ACV4 1-102)
chain: MKYLLIFLLVLAIFVISVTLGAQNDQQVTFNYLLAQGEYRISTLLAVLFAAGFAIGWLICGLFWLRVRVSLARAERKIKRLENQLSPATDVAVVPHSSAAKE
B8: MukB (protein, UniProt P22523 1-1486)
chain: MIERGKFRSLTLINWNGFFARTFDLDELVTTLSGGNGAGKSTTMAAFVTALIPDLTLLHFRNTTEAGATSGSRDKGLHGKLKAGVCYSMLDTINSRHQRVVVGVRLQQVAGRDRKVDIKPFAIQGLPMSVQPTQLVTETLNERQARVLPLNELKDKLEAMEGVQFKQFNSITDYHSLMFDLGIIARRLRSASDRSKFYRLIEASLYGGISSAITRSLRDYLLPENSGVRKAFQDMEAALRENRMTLEAIRVTQSDRDLFKHLISEATNYVAADYMRHANERRVHLDKALEFRRELHTSRQQLAAEQYKHVDMARELAEHNGAEGDLEADYQAASDHLNLVQTALRQQEKIERYEADLDELQIRLEEQNEVVAEAIERQQENEARAEAAELEVDELKSQLADYQQALDVQQTRAIQYNQAIAALNRAKELCHLPDLTADCAAEWLETFQAKELEATEKMLSLEQKMSMAQTAHSQFEQAYQLVVAINGPLARNEAWDVARELLREGVDQRHLAEQVQPLRMRLSELEQRLREQQEAERLLADFCKRQGKNFDIDELEALHQELEARIASLSDSVSNAREERMALRQEQEQLQSRIQSLMQRAPVWLAAQNSLNQLSEQCGEEFTSSQDVTEYLQQLLEREREAIVERDEVGARKNAVDEEIERLSQPGGSEDQRLNALAERFGGVLLSEIYDDVSLEDAPYFSALYGPSRHAIVVPDLSQVTEHLEGLTDCPEDLYLIEGDPQSFDDSVFSVDELEKAVVVKIADRQWRYSRFPEVPLFGRAARESRIESLHAEREVLSERFATLSFDVQKTQRLHQAFSRFIGSHLAVAFESDPEAEIRQLNSRRVELERALSNHENDNQQQRIQFEQAKEGVTALNRILPRLNLLADDSLADRVDEIRERLDEAQEAARFVQQFGNQLAKLEPIVSVLQSDPEQFEQLKEDYAYSQQMQRDARQQAFALTEVVQRRAHFSYSDSAEMLSGNSDLNEKLRERLEQAEAERTRAREALRGHAAQLSQYNQVLASLKSSYDTKKELLNDLQRELQDIGVRADSGAEERARIRRDELHAQLSNNRSRRNQLEKALTFCEAEMDNLTRKLRKLERDYFEMREQVVTAKAGWCAVMRMVKDNGVERRLHRRELAYLSADDLRSMSDKALGALRLAVADNEHLRDVLRMSEDPKRPERKIQFFVAVYQHLRERIRQDIIRTDDPVEAIEQMEIELSRLTEELTSREQKLAISSRSVANIIRKTIQREQNRIRMLNQGLQNVSFGQVNSVRLNVNVRETHAMLLDVLSEQHEQHQDLFNSNRLTFSEALAKLYQRLNPQIDMGQRTPQTIGEELLDYRNYLEMEVEVNRGSDGWLRAESGALSTGEAIGTGMSILVMVVQSWEDESRRLRGKDISPCRLLFLDEAARLDARSIATLFELCERLQMQLIIAAPENISPEKGTTYKLVRKVFQNTEHVHVVGLRGFAPQLPETLPGTDEAPSQAS
B9: WaaC (enzyme, UniProt P24173 1-319)
chain: MRVLIVKTSSMGDVLHTLPALTDAQQAIPGIKFDWVVEEGFAQIPSWHAAVERVIPVAIRRWRKAWFSAPIKAERKAFREALQAENYDAVIDAQGLVKSAALVTRLAHGVKHGMDWQTAREPLASLFYNRKHHIAKQQHAVERTRELFAKSLGYSKPQTQGDYAIAQHFLTNLPTDAGEYAVFLHATTRDDKHWPEEHWRELIGLLADSGIRIKLPWGAPHEEERAKRLAEGFAYVEVLPKMSLEGVARVLAGAKFVVSVDTGLSHLTAALDRPNITVYGPTDPGLIGGYGKNQMVCRAPRENLINLNSQAVLEKLSSL
B10: LapD (protein, UniProt P0ADW3 1-132)
chain: T1 sequence

The binders below were run against T1, His6-tagged LapD protein (E. coli K-12) (assay: affinity purification with mass spectrometry; His6-LapD (pCA24N JW5539 in BW25113) from IM fraction solubilized with 2% octyl-β-D-glucoside, on nickel-nitrilotriacetic acid beads, eluted with 250 mM and 100 mM imidazole; co-eluting proteins resolved on 12% SDS-PAGE (Coomassie) and identified by MALDI-TOF).

binding	Binder
binds	B1
binds	B2
binds	B3
binds	B4
binds	B5
binds	B6
binds	B7
binds	B8

Each binder was assayed against His6-tagged LapB protein (E. coli) (UniProt P0AB58) (assay: affinity purification with mass spectrometry; His6-LapB from IM fraction solubilized with 2% octyl-β-D-glucoside, on nickel-nitrilotriacetic acid beads, eluted with 250 mM imidazole; co-eluting proteins resolved on 12% SDS-PAGE (Coomassie) and identified by MALDI-TOF).

binding	Binder
binds	B9
binds	B10
binds	B7
